# The list shows a part of the results, in another mix than the full data.
# By UniProt entry, the sequences of proteins in these tests, tags left out. Where a name states a change or a piece, a line headed by the entry shows the natural chain unless it says otherwise.
# UniProt Q8TF72: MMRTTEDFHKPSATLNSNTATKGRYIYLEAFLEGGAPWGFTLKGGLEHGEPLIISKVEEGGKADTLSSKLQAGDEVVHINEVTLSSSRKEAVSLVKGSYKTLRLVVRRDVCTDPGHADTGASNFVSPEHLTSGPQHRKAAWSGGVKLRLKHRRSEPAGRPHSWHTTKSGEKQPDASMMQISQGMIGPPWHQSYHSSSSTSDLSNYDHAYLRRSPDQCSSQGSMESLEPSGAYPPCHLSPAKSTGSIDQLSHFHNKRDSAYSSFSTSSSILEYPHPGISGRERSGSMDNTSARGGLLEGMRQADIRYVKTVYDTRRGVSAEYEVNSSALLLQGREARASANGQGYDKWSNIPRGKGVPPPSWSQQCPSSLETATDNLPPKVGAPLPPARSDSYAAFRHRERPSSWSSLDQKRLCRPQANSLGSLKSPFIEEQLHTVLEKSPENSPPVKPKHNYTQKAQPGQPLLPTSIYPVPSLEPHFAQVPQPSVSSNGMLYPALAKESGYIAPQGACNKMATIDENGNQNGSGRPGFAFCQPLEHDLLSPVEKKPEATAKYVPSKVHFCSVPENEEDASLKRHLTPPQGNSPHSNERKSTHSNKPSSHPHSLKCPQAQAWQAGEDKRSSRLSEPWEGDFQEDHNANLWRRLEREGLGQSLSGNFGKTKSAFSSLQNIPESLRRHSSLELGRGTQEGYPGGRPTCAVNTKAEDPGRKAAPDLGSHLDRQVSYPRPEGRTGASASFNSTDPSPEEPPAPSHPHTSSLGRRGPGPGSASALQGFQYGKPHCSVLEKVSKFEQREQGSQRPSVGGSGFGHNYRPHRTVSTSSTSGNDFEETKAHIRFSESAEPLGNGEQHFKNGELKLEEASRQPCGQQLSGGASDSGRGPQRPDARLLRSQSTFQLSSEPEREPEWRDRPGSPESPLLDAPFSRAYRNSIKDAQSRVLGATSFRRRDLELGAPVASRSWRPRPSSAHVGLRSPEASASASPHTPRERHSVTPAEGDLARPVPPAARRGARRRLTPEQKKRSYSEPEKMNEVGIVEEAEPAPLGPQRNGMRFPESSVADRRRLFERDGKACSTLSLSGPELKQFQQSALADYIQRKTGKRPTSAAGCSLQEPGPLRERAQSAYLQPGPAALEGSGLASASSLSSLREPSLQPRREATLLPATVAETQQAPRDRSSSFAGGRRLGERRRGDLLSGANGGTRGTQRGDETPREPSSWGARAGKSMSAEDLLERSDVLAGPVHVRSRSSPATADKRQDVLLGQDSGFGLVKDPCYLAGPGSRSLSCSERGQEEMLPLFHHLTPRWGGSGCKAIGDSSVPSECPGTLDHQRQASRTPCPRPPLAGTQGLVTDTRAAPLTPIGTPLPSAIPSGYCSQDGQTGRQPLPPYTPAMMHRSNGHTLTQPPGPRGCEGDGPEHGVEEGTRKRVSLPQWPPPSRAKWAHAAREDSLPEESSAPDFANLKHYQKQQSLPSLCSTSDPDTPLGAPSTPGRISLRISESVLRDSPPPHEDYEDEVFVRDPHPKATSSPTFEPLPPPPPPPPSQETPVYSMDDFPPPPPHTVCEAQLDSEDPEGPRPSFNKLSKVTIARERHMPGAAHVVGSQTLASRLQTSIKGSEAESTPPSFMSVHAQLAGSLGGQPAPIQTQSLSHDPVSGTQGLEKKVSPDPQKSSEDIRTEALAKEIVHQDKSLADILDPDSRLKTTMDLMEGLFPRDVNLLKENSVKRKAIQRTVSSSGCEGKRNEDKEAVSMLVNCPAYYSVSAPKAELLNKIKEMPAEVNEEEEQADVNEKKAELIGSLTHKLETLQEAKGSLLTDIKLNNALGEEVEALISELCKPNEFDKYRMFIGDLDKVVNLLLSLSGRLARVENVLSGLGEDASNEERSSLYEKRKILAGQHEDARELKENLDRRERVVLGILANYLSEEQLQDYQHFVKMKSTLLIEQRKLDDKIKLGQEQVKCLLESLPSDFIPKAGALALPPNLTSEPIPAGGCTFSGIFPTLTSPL
# UniProt Q8NCC3: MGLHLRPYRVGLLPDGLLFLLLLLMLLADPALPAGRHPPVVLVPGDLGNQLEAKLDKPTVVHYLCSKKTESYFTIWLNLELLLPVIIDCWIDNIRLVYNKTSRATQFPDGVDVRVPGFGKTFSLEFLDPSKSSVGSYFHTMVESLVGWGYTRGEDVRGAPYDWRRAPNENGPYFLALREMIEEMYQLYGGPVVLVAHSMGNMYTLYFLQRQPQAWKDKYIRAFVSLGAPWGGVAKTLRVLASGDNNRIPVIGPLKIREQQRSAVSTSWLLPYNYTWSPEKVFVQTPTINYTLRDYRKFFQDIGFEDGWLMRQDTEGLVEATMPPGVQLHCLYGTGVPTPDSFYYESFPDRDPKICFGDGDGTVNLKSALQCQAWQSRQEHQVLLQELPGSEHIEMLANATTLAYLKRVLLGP
# UniProt Q8TEW0: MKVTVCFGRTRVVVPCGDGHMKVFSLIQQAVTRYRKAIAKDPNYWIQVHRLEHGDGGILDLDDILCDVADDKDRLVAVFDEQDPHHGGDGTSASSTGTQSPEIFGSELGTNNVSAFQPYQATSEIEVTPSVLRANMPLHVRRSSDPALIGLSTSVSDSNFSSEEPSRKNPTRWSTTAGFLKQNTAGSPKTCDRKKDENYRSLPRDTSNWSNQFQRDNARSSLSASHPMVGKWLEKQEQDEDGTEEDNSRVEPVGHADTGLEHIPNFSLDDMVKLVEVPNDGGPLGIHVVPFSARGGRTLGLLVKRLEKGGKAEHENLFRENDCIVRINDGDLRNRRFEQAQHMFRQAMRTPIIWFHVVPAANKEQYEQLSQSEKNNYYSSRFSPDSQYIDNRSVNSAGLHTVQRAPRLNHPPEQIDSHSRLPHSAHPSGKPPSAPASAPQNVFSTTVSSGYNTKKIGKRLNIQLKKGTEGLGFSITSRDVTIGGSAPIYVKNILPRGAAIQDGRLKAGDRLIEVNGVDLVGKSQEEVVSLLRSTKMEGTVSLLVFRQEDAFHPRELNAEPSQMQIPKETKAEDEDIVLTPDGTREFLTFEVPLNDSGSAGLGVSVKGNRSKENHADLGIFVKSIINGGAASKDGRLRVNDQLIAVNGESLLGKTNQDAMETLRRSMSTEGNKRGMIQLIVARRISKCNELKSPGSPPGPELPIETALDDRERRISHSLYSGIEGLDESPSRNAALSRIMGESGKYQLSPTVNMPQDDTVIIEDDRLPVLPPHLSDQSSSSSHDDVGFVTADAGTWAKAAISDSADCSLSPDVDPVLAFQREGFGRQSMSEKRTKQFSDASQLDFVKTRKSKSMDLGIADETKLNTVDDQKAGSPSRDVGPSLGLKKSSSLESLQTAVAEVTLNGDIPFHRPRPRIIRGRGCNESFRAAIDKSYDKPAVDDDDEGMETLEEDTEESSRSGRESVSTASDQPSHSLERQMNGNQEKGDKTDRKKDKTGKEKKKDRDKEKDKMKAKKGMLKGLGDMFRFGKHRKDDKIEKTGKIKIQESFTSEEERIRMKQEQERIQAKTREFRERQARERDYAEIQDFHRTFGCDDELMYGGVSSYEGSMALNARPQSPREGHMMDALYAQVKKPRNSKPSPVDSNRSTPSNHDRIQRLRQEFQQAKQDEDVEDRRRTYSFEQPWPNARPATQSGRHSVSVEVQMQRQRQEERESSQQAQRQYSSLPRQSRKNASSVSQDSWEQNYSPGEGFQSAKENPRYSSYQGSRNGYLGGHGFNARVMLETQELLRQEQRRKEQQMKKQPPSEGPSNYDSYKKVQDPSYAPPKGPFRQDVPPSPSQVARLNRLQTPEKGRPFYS
# UniProt Q8N1F7: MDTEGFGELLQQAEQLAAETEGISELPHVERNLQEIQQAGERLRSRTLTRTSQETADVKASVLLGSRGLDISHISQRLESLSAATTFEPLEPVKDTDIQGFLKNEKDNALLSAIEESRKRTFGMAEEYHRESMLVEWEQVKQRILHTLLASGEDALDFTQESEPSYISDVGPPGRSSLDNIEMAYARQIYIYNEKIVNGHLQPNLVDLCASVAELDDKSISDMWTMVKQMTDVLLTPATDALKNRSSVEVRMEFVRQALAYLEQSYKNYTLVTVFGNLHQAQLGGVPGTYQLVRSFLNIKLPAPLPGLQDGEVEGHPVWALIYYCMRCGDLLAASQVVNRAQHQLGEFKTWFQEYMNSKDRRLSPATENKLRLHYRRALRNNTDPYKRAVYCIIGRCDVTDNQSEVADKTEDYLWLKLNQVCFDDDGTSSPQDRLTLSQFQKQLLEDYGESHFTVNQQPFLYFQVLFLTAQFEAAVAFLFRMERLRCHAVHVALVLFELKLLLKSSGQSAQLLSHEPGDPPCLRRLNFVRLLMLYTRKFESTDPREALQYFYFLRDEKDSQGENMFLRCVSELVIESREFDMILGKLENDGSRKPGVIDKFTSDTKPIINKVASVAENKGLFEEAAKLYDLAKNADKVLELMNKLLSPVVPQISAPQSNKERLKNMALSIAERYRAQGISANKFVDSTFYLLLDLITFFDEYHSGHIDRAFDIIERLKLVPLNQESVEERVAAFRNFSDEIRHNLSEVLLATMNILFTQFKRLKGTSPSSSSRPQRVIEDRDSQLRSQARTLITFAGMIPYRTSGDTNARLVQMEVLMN
# UniProt Q8TAG9: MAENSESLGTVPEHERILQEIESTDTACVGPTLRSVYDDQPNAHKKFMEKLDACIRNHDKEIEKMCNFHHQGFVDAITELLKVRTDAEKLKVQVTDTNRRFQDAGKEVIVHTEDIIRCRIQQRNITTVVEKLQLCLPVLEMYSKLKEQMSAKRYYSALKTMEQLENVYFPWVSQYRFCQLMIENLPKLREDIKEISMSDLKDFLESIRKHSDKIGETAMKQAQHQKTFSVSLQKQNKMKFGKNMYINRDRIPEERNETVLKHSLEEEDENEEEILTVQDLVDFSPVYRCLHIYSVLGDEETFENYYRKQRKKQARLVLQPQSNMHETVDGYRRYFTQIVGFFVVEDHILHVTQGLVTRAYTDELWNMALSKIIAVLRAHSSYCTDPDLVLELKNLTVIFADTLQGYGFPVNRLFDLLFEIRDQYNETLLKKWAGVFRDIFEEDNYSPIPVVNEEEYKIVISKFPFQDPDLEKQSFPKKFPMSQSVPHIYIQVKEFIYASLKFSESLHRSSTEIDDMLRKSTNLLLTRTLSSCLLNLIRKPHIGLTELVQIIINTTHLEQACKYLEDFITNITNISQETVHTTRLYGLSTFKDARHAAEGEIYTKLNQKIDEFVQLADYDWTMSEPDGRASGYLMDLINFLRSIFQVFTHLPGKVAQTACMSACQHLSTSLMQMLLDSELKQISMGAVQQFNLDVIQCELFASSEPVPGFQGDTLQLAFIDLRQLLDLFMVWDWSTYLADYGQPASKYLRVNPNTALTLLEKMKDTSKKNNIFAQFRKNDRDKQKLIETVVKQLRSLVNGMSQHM
# UniProt Q8NB37: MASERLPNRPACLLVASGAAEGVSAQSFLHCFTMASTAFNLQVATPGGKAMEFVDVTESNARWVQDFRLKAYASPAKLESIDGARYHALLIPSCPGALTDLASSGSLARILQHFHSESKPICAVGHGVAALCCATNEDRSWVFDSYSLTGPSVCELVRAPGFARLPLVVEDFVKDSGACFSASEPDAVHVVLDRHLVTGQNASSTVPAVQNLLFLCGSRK
# UniProt Q8N300: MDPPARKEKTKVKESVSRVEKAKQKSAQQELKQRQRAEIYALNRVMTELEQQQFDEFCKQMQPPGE
# UniProt Q8NDT2: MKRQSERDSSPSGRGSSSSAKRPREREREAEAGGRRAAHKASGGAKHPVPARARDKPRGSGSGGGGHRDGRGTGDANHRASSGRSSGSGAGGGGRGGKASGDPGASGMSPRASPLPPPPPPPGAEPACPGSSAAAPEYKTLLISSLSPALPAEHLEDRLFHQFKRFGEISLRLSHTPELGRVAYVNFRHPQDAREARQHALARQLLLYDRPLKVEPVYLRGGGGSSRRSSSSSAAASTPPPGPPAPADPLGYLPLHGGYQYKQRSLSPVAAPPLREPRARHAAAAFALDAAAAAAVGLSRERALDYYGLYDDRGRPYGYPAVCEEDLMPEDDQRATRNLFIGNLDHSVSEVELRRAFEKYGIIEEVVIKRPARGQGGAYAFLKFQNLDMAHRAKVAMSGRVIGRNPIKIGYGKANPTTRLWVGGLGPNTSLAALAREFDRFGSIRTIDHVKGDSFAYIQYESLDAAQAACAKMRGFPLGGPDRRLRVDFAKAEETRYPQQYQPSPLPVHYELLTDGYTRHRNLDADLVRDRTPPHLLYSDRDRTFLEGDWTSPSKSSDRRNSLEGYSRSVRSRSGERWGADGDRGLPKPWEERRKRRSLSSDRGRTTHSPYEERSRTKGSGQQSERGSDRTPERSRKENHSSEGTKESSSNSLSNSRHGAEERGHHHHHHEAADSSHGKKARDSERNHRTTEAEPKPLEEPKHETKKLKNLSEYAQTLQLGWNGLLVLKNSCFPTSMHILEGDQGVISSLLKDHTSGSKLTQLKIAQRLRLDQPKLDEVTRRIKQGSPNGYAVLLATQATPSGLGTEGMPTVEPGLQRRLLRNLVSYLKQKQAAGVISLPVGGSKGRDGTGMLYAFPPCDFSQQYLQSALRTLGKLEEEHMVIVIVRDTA
# Compound: COC(=O)C#Cc1ccccc1 [methyl 3-phenylpropiolate]
# Assay: log2 ratio of iodoacetamide-alkyne labeling of the cysteine site, DMSO over compound (competition); higher = stronger covalent engagement of the cysteine by the compound, active = 1 or more
# Conditions: 500 µM; treatment time 1 h; system: HEK293T cell lysate
# Summary of the method: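 Three replicates, each with duplicate channels, were prepared from HEK293T lysate (2 mg/mL) treated with vehicle or electrophile at 500 µM for 1 h at ambient temperature. Iodoacetamide alkyne was then applied for 1 h, and samples were clicked to sCIP-TMT reagents, pooled, trypsin-digested overnight at 37 °C, enriched on streptavidin, acid-eluted and analysed on Orbitrap Eclipse LC-MS/MS with FAIMS, with FragPipe quantification. The log2 competition ratio per cysteine is the mean control-channel divided by the mean compound-channel reporter intensity. Cysteines quantified in only one replicate were left out.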
row,Target,log2 ratio of iodoacetamide-alkyne labeling
1,PIEZO1 C383 (UniProt Q92508),inactive: 0.166
2,SHROOM3 C1951 (UniProt Q8TF72),inactive: 0.289
3,LPCAT1 C216 (UniProt Q8NF37),inactive: 0.211
4,UniProt Q8WVV9_C505,inactive: 0.137
5,UniProt Q8N954_C95,inactive: 0.417
6,PLA2G15 C355 (UniProt Q8NCC3),inactive: 0.436
7,OTUD6B C172 (UniProt Q8N6M0),inactive: 0.377
8,ASCC3 C208 (UniProt Q8N3C0),inactive: 0.436
9,ZNF687 C91 (UniProt Q8N1G0),inactive: 0.734
10,UniProt Q8N1I0_C1723,active: 1.34
11,NECAP1 C162 (UniProt Q8NC96),inactive: 0.89
12,UniProt Q8WZA9_C504,inactive: 0.0403
13,NKAP C349 (UniProt Q8N5F7),inactive: 0.496
14,ZNF280C C530 (UniProt Q8ND82),inactive: 0.334
15,NEK7 C298 (UniProt Q8TDX7),inactive: 0.152
16,PDCD6IP C231 (UniProt Q8WUM4),inactive: 0.409
17,TDRD7 C1029 (UniProt Q8NHU6),inactive: 0.426
18,FLAD1 C496 (UniProt Q8NFF5),active: 1.06
19,PARD3 C806 (UniProt Q8TEW0),inactive: 0.0738

# Nothing new here: an excerpt of the list.
row,Target,log2 ratio of iodoacetamide-alkyne labeling
14,ZNF280C C530 (UniProt Q8ND82),inactive: 0.334
15,NEK7 C298 (UniProt Q8TDX7),inactive: 0.152
16,PDCD6IP C231 (UniProt Q8WUM4),inactive: 0.409

# More entries:

row,Target,log2 ratio of iodoacetamide-alkyne labeling
1,NUP133 C1037 (UniProt Q8WUM0),inactive: 0.0278
2,SLC25A40 C142 (UniProt Q8TBP6),inactive: 0.134
3,KLHL36 C263 (UniProt Q8N4N3),inactive: -0.0546
4,NUP93 C422 (UniProt Q8N1F7),inactive: 0.144
5,IPO4 C735 (UniProt Q8TEX9),inactive: 0.21
6,EXOC6 C66 (UniProt Q8TAG9),inactive: 0.0219
7,INTS1 C643 (UniProt Q8N201),inactive: 0.127
8,UniProt Q8NFC6_C74,inactive: 0.258
9,EXOC6 C28 (UniProt Q8TAG9),inactive: 0.489
10,NUP133 C702 (UniProt Q8WUM0),inactive: 0.279
11,UniProt Q8WYL5_C626,active: 1.19
12,PPP4R1 C261 (UniProt Q8TF05),inactive: 0.0823
13,ZNF687 C339 (UniProt Q8N1G0),inactive: 0.853
14,UniProt Q8NB37_C179,inactive: 0.12
15,SVBP C58 (UniProt Q8N300),inactive: -0.0114
16,TTL C91 (UniProt Q8NG68),inactive: 0.249
17,PHF10 C134 (UniProt Q8WUB8),inactive: 0.0674
18,RBM15B C128 (UniProt Q8NDT2),inactive: 0.668
